PMC12199398, “Manipulating the Light Systemic Signal HY5 Greatly Improve Fruit Quality in Tomato”

What was measured:
[1] = molecular target: T1, HY5 (His-HY5) (Solanum lycopersicum (tomato)) (UniProt Q9SM50); assay: EMSA; conditions: labeled mutant probe; LightShift Chemiluminescent EMSA Kit (Thermo 20148); pH and temperature not stated; recombinant protein; residues 1-158; protein details: His (pET-32a); label: labeled or unlabeled competitor
T1 sequence (looked up): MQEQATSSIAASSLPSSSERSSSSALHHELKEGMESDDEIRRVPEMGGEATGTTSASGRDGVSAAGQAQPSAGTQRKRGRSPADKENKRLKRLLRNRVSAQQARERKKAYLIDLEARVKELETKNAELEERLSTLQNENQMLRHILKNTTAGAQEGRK

[2] = molecular target: T1, HY5 (His-HY5) (Solanum lycopersicum (tomato)); assay: competition with a labelled probe; conditions: LightShift Chemiluminescent EMSA Kit (Thermo 20148), pH and temperature not stated, recombinant protein, residues 1-158, protein details: His (pET-32a), label: labeled or unlabeled competitor

Row | Sequence | binding result [1] | other results
1 | AAGAAAAAAAATGAAAATTTTCCCCTTATT (double strand) [VI mutant probe] | no binding | binding result ([2]; unlabeled mutant vs labeled N5): no binding
2 | CACCCTTTAGAAAAATTACAGTAG (double strand) [SS1 mutant probe] | no binding | binding result ([2]; unlabeled mutant vs labeled N7): no binding
3 | CGCAATTAAATTTTTTAGGGCTTTGA (double strand) [LIN6 mutant probe] | no binding | binding result ([2]; unlabeled mutant vs labeled N13): no binding
4 | GAAAATCTTTTTGTCTTAA (double strand) [PSY1 mutant probe] | no binding | binding result ([2]; unlabeled mutant vs labeled N1): no binding
5 | GCCCGGTGTCTTTTTTAGATTGACAG (double strand) [SS7 mutant probe] | no binding | binding result ([2]; unlabeled mutant vs labeled N9): no binding
6 | GTAAATTATTTTTTCAGGCTTTAT (double strand) [LIN5 mutant probe] | no binding | binding result ([2]; unlabeled mutant vs labeled N11): no binding
7 | TGGTGGGTTTTGTCAAATT (double strand) [PDS mutant probe] | no binding | binding result ([2]; unlabeled mutant vs labeled N3): no binding

Negatives hold for the conditions tested. At least one verdict was read from the data and is not stated in words by the source. Protein sequences can lack the tags named with them.
